Data reported in paper doi:10.1101/2024.09.18.613669.
No constants are given. Whether binding was seen depends on the method and setting. Some binding calls cover weakened binding; strength is not graded here.

By UniProt entry, the sequences of proteins in these tests, tags left out.
UniProt P35637: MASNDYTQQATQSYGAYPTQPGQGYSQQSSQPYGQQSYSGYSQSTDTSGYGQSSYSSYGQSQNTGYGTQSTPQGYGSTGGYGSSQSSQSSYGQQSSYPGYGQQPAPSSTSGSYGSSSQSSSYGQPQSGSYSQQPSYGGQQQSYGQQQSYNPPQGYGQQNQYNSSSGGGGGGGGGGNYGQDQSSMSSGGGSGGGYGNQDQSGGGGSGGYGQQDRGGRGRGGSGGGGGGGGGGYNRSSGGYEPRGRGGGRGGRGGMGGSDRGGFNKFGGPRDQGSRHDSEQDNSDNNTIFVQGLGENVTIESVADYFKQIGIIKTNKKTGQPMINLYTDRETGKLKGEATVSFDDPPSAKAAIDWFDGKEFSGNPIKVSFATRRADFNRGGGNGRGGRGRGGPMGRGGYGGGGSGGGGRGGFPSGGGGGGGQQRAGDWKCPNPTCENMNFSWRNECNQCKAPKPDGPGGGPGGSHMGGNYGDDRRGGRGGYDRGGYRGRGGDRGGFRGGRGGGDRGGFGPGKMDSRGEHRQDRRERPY
UniProt Q02078: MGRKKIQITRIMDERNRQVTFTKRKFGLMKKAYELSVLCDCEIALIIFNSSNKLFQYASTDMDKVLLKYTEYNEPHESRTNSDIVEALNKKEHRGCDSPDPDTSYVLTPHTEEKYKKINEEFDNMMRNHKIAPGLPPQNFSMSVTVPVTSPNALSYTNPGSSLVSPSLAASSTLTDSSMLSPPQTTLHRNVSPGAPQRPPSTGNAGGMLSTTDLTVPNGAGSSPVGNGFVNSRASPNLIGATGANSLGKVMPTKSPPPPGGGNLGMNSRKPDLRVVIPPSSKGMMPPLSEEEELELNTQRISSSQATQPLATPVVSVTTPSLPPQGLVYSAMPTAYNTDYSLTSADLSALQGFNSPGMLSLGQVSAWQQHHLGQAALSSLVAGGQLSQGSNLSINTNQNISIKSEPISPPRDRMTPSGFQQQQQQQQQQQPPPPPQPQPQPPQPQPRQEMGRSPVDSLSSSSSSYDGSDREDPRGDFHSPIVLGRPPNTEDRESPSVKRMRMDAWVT
UniProt P41161: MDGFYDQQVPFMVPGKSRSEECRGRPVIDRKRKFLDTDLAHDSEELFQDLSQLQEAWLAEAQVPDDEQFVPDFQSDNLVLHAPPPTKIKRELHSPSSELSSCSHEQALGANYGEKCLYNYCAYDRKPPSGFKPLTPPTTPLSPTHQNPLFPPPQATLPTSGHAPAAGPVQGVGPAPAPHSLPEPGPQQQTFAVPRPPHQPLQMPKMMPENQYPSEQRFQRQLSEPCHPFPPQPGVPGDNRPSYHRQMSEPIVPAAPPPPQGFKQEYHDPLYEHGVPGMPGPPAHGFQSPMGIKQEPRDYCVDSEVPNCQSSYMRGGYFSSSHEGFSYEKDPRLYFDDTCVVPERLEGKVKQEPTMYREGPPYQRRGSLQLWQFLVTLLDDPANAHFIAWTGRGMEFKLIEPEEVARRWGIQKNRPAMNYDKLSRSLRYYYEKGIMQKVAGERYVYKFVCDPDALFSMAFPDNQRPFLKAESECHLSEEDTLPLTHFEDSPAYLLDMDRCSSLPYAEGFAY

Biological target: FUS recombinant protein (UniProt P35637)
Experiment: co-IP

Substance: MEF2A-mCherry (from UniProt Q02078 1-507)
- binding: binds

Substance: ETV5-CFP (from UniProt P41161 1-510)
- binding: binds
